The list shows a part of the results.
compound: CN1CC[C@H](c2c(O)cc(O)c3c(=O)cc(-c4ccccc4Cl)oc23)[C@H](O)C1 [alvocidib]; assay: log2 fold change, soluble protein after heating vs DMSO (PISA); higher = thermal stabilisation; K562 cells, 10 uM, 30 min; active = over 0.2 and 3.5 SD of the protein, either way, in both replicates (recomputed)
How it was run: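 K562 cells at 2×10^6 cells/mL were treated for 30 min with 10 μM compound, and aliquots were heated for 3 min over 48°C-58°C before pooling. Extraction used PBS with 0.5% NP-40 at 4°C, and soluble protein was the supernatant after 21,000xg for 90 min, measured by TMTpro 16plex LC-MS/MS with channel sums equalised. Thermal stability values, relative to control samples and from duplicates, are log2 fold changes.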

By UniProt entry, the sequences of proteins in these tests, tags left out. Where a name states a change or a piece, a line headed by the entry shows the natural chain unless it says otherwise.
UniProt Q9UMX0, whole entry, looked up: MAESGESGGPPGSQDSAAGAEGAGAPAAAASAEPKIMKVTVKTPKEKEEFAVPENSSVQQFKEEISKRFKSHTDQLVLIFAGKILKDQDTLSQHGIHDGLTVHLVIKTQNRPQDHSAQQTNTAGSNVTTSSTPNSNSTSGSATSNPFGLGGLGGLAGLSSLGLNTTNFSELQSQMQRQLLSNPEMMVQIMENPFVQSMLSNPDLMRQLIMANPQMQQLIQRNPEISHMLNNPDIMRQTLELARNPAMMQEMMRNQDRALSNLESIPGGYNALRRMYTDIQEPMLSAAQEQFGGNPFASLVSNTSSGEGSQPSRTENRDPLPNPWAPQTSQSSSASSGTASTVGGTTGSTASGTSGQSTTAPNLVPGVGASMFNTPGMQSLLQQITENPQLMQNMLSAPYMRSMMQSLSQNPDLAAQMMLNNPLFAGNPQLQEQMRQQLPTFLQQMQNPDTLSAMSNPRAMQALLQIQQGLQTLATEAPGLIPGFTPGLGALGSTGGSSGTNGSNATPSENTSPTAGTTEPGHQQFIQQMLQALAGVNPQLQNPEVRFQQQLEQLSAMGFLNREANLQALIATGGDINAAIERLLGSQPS
UniProt Q9UPT9: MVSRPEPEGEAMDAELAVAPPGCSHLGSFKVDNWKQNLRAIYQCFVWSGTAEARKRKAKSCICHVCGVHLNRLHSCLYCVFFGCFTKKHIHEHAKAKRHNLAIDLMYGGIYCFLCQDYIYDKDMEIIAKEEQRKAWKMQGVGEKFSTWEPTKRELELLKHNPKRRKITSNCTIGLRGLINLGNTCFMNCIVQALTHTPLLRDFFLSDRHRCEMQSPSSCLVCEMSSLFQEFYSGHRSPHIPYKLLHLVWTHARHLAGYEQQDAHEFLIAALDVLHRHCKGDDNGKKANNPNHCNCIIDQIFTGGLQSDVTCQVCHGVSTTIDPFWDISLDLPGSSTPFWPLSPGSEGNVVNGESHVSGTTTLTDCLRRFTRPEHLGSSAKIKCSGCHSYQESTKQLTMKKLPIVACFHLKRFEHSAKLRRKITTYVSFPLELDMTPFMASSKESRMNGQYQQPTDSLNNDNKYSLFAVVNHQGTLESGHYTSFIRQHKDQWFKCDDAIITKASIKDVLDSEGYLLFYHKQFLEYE
UniProt Q8NBZ7: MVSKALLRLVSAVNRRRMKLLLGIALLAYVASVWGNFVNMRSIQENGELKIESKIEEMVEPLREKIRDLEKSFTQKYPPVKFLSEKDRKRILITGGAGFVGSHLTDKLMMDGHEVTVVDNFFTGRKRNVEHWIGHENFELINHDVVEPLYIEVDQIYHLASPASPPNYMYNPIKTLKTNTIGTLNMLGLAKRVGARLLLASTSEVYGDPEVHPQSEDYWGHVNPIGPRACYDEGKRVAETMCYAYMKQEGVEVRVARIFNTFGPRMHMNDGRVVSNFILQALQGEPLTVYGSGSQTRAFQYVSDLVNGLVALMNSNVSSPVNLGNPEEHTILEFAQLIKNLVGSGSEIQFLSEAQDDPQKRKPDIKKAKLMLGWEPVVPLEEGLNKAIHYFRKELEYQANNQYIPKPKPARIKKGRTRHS
UniProt P55072, whole entry, looked up: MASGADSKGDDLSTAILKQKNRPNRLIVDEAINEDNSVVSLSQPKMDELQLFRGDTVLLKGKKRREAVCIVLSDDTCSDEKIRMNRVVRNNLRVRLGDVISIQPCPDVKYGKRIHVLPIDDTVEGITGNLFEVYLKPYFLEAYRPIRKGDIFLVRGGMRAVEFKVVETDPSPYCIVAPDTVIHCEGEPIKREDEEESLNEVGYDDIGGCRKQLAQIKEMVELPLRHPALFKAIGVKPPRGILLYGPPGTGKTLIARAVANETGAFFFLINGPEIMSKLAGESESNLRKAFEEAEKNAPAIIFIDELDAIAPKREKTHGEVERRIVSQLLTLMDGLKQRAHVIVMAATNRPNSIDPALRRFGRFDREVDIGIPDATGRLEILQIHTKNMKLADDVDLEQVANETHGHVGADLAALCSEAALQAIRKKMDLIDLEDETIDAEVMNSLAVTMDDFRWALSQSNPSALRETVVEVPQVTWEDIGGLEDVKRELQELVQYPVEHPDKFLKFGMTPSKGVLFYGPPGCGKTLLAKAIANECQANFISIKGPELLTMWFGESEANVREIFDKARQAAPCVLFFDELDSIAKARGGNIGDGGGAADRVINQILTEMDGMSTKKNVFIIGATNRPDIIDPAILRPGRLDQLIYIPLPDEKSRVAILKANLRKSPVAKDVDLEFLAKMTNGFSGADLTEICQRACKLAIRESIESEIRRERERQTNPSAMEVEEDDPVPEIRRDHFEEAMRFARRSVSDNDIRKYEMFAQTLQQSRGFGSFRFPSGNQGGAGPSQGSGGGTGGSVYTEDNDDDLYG
UniProt O94966: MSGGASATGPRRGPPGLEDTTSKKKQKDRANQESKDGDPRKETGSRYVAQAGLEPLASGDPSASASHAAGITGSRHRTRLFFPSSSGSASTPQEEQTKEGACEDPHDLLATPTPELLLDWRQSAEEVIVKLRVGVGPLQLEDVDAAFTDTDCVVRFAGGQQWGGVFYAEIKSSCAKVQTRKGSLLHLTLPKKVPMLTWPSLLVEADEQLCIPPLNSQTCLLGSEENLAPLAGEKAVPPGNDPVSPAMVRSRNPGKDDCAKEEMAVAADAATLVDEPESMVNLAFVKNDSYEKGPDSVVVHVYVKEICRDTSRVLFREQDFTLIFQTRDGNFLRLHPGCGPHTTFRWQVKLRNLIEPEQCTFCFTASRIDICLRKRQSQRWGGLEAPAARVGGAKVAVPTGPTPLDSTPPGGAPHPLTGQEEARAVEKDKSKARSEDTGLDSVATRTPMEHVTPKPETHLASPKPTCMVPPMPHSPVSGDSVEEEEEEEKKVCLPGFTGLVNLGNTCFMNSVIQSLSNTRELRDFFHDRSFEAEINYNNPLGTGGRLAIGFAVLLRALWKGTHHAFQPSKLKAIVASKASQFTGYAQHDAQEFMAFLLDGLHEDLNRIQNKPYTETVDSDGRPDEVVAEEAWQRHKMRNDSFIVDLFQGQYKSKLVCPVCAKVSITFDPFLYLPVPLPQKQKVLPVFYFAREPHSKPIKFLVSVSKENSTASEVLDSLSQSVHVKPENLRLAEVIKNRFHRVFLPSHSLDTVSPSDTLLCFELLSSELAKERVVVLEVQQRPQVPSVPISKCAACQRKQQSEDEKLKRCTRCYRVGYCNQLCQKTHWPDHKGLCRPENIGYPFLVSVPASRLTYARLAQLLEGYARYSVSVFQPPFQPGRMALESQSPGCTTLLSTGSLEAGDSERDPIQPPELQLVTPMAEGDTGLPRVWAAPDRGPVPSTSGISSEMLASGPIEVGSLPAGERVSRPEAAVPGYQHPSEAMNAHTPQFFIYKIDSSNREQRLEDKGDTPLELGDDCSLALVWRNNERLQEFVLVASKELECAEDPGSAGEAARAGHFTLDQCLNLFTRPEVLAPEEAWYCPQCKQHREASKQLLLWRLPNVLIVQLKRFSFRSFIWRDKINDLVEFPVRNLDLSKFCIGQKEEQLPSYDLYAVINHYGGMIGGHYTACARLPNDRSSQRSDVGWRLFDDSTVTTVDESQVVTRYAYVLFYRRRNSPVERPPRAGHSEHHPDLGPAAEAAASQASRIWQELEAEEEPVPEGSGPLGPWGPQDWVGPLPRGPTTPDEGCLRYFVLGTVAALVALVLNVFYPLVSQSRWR
UniProt Q15386: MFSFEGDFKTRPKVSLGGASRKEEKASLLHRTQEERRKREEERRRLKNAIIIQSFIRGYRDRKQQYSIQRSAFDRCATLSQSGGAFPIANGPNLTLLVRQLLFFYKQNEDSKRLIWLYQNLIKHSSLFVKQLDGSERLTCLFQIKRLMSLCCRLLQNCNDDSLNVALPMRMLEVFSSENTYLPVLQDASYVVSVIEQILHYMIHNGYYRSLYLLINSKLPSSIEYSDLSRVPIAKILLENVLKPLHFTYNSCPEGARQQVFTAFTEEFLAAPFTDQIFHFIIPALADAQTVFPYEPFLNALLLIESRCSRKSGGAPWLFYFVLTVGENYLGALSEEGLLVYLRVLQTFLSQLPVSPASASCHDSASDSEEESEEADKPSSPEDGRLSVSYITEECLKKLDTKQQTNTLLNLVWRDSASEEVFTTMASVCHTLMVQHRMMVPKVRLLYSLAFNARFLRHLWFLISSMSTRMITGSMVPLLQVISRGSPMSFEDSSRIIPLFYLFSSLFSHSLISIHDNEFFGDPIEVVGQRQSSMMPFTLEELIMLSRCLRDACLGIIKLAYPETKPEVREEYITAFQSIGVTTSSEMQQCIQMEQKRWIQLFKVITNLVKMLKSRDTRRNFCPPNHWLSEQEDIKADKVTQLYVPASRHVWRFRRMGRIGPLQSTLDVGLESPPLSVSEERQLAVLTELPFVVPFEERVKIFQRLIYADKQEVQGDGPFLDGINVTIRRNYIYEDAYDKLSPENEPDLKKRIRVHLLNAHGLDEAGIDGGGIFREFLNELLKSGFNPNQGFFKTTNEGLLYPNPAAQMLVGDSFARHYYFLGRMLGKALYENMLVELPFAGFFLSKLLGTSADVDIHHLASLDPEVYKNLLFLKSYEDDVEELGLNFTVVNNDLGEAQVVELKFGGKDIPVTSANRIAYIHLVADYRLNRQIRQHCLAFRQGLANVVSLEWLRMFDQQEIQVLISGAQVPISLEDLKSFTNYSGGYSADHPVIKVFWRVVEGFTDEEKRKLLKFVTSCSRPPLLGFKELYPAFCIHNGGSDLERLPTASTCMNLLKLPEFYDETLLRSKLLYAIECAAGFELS
UniProt Q9NWZ5: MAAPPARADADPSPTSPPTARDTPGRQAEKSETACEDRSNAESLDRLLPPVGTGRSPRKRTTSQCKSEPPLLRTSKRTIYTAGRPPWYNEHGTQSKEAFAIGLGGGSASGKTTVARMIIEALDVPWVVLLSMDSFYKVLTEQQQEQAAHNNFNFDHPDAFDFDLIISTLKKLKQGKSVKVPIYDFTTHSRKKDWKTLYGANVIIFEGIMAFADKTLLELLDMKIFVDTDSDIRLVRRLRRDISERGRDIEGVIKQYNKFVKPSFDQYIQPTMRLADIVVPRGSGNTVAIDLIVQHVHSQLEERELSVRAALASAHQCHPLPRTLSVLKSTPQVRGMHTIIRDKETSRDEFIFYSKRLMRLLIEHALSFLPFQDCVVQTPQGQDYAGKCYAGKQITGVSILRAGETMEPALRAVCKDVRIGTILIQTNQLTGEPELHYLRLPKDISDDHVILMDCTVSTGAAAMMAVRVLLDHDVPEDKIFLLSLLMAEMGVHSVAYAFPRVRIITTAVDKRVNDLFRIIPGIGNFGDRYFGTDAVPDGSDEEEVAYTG
UniProt Q9BZL1: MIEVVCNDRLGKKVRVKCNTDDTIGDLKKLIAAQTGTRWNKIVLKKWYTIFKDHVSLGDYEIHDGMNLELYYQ
UniProt Q96BW1: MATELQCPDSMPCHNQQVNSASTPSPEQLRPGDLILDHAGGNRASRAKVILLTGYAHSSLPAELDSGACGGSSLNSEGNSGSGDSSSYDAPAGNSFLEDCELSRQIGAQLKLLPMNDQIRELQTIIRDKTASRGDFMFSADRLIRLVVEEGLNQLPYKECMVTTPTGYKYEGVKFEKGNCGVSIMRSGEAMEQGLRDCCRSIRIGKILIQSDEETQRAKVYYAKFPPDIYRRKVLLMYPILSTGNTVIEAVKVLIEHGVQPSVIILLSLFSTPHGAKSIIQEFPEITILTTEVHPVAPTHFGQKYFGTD

log2 fold change, inactive:
UMPS (UniProt P11172) -0.033, UBXN7 (UniProt O94888) -0.072, USP6NL isoform 2 (UniProt Q92738) -0.309, UBQLN1 (UniProt Q9UMX0) 0.068, USP22 (UniProt Q9UPT9) -0.055, UGT8 (UniProt Q16880) 0.026, VAMP2 (UniProt P63027) -0.009, UXS1 isoform 2 (UniProt Q8NBZ7) 0.004, VCP (UniProt P55072) 0.014, USP19 isoform 6 (UniProt O94966) -0.085, UTP15 (UniProt Q8TED0) 0.386, UBL4A (UniProt P11441) -0.06, UBE3C (UniProt Q15386) -0.118, VAMP4 (UniProt O75379) 0.071, UQCC1 (UniProt Q9NVA1) -0.03, UCKL1 (UniProt Q9NWZ5) 0.022, UQCRB (UniProt P14927) -0.005, VARS (UniProt P26640) -0.011, UBL5 (UniProt Q9BZL1) 0, USP20 (UniProt Q9Y2K6) 0.135, USP30 (UniProt Q70CQ3) 0, UPRT (UniProt Q96BW1) 0.023, UVRAG (UniProt Q9P2Y5) -0.064
